From US6551793B1, “Carotenoid-associated proteins useful for high carotenoid accumulation and production in plants and other organisms” (Yissum Research Development Company of the Hebrew …, priority 1996, dated 2003)

Test system: cucumber corollas
Test: Total protein content and fresh weight of in vitro cultured corollas
Format: cell-based, Cucumis sativus

| SMILES | Difference in fresh weight or total protein level between treated and control corollas (GA3, up to 24 hours in culture) | Change in total protein content of corollas (GA3, within 6 hours of treatment) | Total protein content of treated corollas, lower than control untreated corollas (ethylene, 72 hours) [%] |
| --- | --- | --- | --- |
| C=C1C[C@]23C[C@@]1(O)CC[C@H]2[C@@]12C=C[C@H](O)[C@@](C)(C(=O)O1)[C@H]2[C@@H]3C(=O)O [GA3, Gibberellin A3] | No difference | No change |  |
| C=C [ethylene] |  |  | 50 |
